Drawing on PubChem BioAssay AID445 (National Center for Advancing Translational Sciences (NCATS), 2006), this text covers AC50 for 62 compounds.

One may read the AC50 as the midpoint of the concentration-response curve, whichever way the signal moves.

This is one part of the list. The main result of the screen is listed elsewhere. These columns were measured beside it and carry no call. Compounds called inactive in the main read-out are mostly missing here. Words in brackets tell the shape of the fitted curve; partial curves, single points and poor fits give uncertain potencies.

This assay can be described thus: IkB Signaling. Particulars: ABC-DLBCL IkBa-CBG/CBR dual luciferase ratio (green luciferase fused to IkBa over red control in OCI-Ly3 lymphoma cells), 4 h. In a few lines: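 In this assay, an IκBα–CBG68 fusion accumulates when IKK-driven degradation is blocked; native CBR normalizes for cell number. OCI-Ly3 cells were treated 4 h with compound and doxycycline, then green and red light read after Chroma-Glo addition.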
[1] abbreviates: measured here: control luc red channel unless noted.

Regarding `O=C(NCC(c1cccnc1)N1CCc2ccccc21)c1cccc(Br)c1` (stereo not drawn), under setting [1], the AC50 was 25.1 µM [falling, single point].

Consider `COc1ccc(-n2ncc(C(=O)NCc3ccco3)c2C2CCN(C(=O)OC(C)(C)C)CC2)cc1`, for which the AC50 under setting [1] was 20 µM [falling, partial curve].

For the compound `COc1ccc(NC(=O)C2CCN(S(=O)(=O)c3cccc(-c4noc(C)n4)c3)CC2)cc1OC`, the half-maximal activity concentration (AC50) under setting [1] is 3.98 µM [rising, single point].

Regarding `CCOC(=O)c1oc2ccc(S(=O)(=O)n3nc(-c4ccc(C)cc4)cc3N)cc2c1C`, the AC50 under setting [1] was 25.1 µM [falling, single point].

Turning to `COc1cccc2sc(N(Cc3cccnc3)C(=O)c3ccc4c(c3)OCCO4)nc12`, under setting [1], the half-maximal activity concentration (AC50) is 15.8 µM [falling, partial curve].

With `O=C(Nc1ccc2c(c1)OCO2)c1cccc(Cl)c1`, the AC50 under setting [1] was 25.1 µM [falling, single point].

Consider `O=C(Nc1ccc(-c2cn3ccsc3n2)cc1)c1ccc(F)c(S(=O)(=O)N2CCOCC2)c1`, for which the AC50 under setting [1] is 39.8 µM [rising, single point] [measured here: IkB-luc green channel].

Turning to `CCN(CC)CCOC(=O)c1ccc(NC(=O)c2cc3c(=O)n(CC)c4ccccc4c3s2)cc1`, the AC50 under setting [1] is 0.794 µM [falling, full curve].

For the compound `COc1ccccc1C1c2c(-c3ccc(Cl)cc3)n[nH]c2C(=O)N1c1ccc(C)cc1` (stereo not drawn), the AC50 under setting [1] is 12.6 µM [falling, partial curve].

With `Cc1ccccc1C(=O)Nc1cccc(OCc2cc(=O)n3c(C)csc3n2)c1`, under setting [1], the concentration at half-maximal activity (AC50) was 31.6 µM [falling, single point].

In the case of `Cc1ccc(S(=O)(=O)N2CCC(C(=O)NCc3ccccc3Cl)CC2)cc1`, under setting [1], the AC50 was 1.58 µM [falling, partial curve, poor fit].

With `Cc1ccccc1S(=O)(=O)Cc1ccc(C(=O)N2CCN(c3cccc(Cl)c3)CC2)o1`, under setting [1], the AC50 is 20 µM [falling, partial curve].

As for `COc1ccccc1N1CCN(c2ncnc3c2nnn3C)CC1`, the AC50 under setting [1] is 3.98 µM [rising, partial curve].

Consider `CN(c1ccccc1)S(=O)(=O)c1ccc(NC(=O)c2nc(S(C)(=O)=O)ncc2Cl)cc1`, for which the AC50 under setting [1] is 3.98 µM [falling, full curve].

Consider `COC(=O)c1c(NC(=O)CCCOc2cccc(C)c2)sc2c1CCC2`, for which the AC50 under setting [1] is 15.8 µM [falling, single point].

On to `COc1ccc(C(=O)N2CCC[C@@]3(CCN(c4cccc(-c5ccccc5)c4)C3)C2)cc1`, for which the half-maximal activity concentration (AC50) under setting [1] is 3.16 µM [falling, partial curve].

Take `CC(=O)Nc1ccc(S(=O)(=O)N2CCN(C(C)CCc3ccccc3)CC2)cc1` (stereo not drawn): the half-maximal activity concentration (AC50) under setting [1] was 15.8 µM [falling, partial curve].

`O=C(c1ccco1)c1nnn(Cc2ccccc2)c1-c1ccccc1`: under setting [1], the concentration at half-maximal activity (AC50) was 31.6 µM [falling, single point].

With `Cc1cc(C)n(-c2nnc(Nc3ccc(C)c(C)c3)c3ccccc23)n1`, the AC50 under setting [1] is 39.8 µM [falling, single point].

With `O=C1Nc2ccccc2Oc2cc(Oc3ccccc3)ccc21`, under setting [1], the AC50 was 5.01 µM [rising, partial curve].

In the case of `Cc1cccc(NC(=O)Cn2cc(C(=O)C3CCCCC3)c3ccccc32)c1`, the half-maximal activity concentration (AC50) under setting [1] was 7.94 µM [falling, partial curve].

As to `CCOC(=O)COc1ccc(C2C(C(=O)OC)=C(C)NC3=C2C(=O)c2ccccc23)cc1Cl` (stereo not drawn), under setting [1], the AC50 is 7.94 µM [falling, partial curve].

Consider `CCOC(=O)CC(NC(=O)CCc1c(C)nc2c(-c3ccccc3)c(C)nn2c1C)c1ccc(OC(C)C)cc1` (stereo not drawn), for which, under setting [1], the AC50 is 20 µM [falling, partial curve].

As for `CSc1ccc(CCNC(=O)NCc2noc3ccccc23)cc1`, the half-maximal activity concentration (AC50) under setting [1] is 25.1 µM [falling, single point].

Consider `COc1ccc(CNc2nc(-c3ccco3)nn2S(=O)(=O)c2ccc(Cl)cc2)cc1OC`, for which the concentration at half-maximal activity (AC50) under setting [1] was 12.6 µM [falling, partial curve].

For the compound `O=C(CSc1cn(CC(=O)N2CCCC2)c2ccccc12)Nc1ccc(Cl)cc1`, the AC50 under setting [1] is 12.6 µM [falling, partial curve].

With `CCCCCCCCCCCCC/C=C\[C@H](O)[C@H](N)CO`, the AC50 under setting [1] was 39.8 µM [falling, partial curve, poor fit] [measured here: IkB-luc green channel].

In the case of `O=C(Nc1cccc(C(F)(F)F)c1)c1ccc2snnc2c1`, the concentration at half-maximal activity (AC50) under setting [1] was 3.98 µM [rising, partial curve].

In the case of `CCOC(=O)C1CCCN(c2ncnc3c2nnn3C)C1` (stereo not drawn), the half-maximal activity concentration (AC50) under setting [1] is 5.01 µM [rising, partial curve].

With `COc1cccc(NC(=O)c2oc3ccccc3c2NC(=O)c2cc3ccccc3o2)c1`, the AC50 under setting [1] was 15.8 µM [falling, partial curve].

Take `CCCOC(=O)Nc1nc2ccccc2o1`: under setting [1], the AC50 was 25.1 µM [falling, single point].

As to `O=S(=O)(Nc1ccc(F)cc1F)c1ccc(-n2cccn2)cc1`, the half-maximal activity concentration (AC50) under setting [1] was 31.6 µM [falling, single point].

Consider `CCOc1ccc(-c2nnc(SCC(=O)c3ccc(Br)cc3)n2-c2ccccc2)cc1`, for which, under setting [1], the AC50 is 20 µM [rising, single point].

For `CC(C)c1ccc(Nc2nc(NCc3ccco3)nc(N3CCOCC3)n2)cc1`, the AC50 under setting [1] is 39.8 µM [falling, single point].

As to `O=C(Nc1cccc(Cl)c1)Nc1ccc2c(c1)OCO2`, the half-maximal activity concentration (AC50) under setting [1] is 12.6 µM [falling, partial curve].

For `CCN(CC)c1ccc2cc(-c3nc(-c4ccccc4F)no3)c(=O)oc2c1`, under setting [1], the concentration at half-maximal activity (AC50) is 0.126 µM [falling, full curve].

`Cc1cc(C)c(S(=O)(=O)Nc2ccc(-c3ccc(N4CCCCCC4)nn3)cc2)cc1C`: the AC50 under setting [1] is 3.98 µM [falling, full curve].

As to `Cc1c(NC(=O)C(C)OC(=O)CC2Sc3ccccc3NC2=O)c(=O)n(-c2ccccc2)n1C` (stereo not drawn), the AC50 under setting [1] was 12.6 µM [falling, partial curve].

In the case of `Cc1cccc(NC(=O)CSc2nc3c(sc4ccccc43)c(=O)n2CCCC(=O)NC2CCCC2)c1`, under setting [1], the AC50 was 20 µM [falling, single point].

Turning to `CCCOC(=O)CSc1nnc(-c2ccccc2Cl)o1`, the AC50 under setting [1] was 5.01 µM [falling, partial curve] [measured here: IkB-luc green channel].

For the compound `Cc1cc(C)c2c(=O)cc(C(=O)NCc3ccc(S(N)(=O)=O)cc3)oc2c1`, the half-maximal activity concentration (AC50) under setting [1] was 3.98 µM [rising, partial curve].

Regarding `COCCCNC(=O)CSc1nc(-c2ccc(OC)c(OC)c2)[nH]c1-c1ccc(F)cc1`, the half-maximal activity concentration (AC50) under setting [1] was 31.6 µM [falling, single point].

`CCc1ccc(NC(=O)CCc2nnc3n(C)c(=O)c4sccc4n23)cc1`: the AC50 under setting [1] was 31.6 µM [falling, single point].

On to `Cc1cc(C)cc(NC(=O)Cn2c(=O)n(Cc3ccco3)c(=O)c3oc4ccccc4c32)c1`, for which, under setting [1], the half-maximal activity concentration (AC50) is 39.8 µM [falling, single point].

As for `Cc1cccc(NC(=O)C2CCCN(S(=O)(=O)c3ccc(Br)s3)C2)c1` (stereo not drawn), under setting [1], the concentration at half-maximal activity (AC50) is 12.6 µM [falling, partial curve].

As to `O=C(CSc1nnc(Cc2ccccc2)n1Cc1ccco1)NC12CC3CC(CC(C3)C1)C2`, under setting [1], the AC50 is 20 µM [falling, partial curve].

On to `COc1ccc(NC(=O)Cn2nnc3sc4c(c3c2=O)CCCC4)cc1`, for which the AC50 under setting [1] is 0.2 µM [falling, partial curve, poor fit].

As for `Cc1ccc(NC(=O)CN2C(=O)COc3ccc(S(=O)(=O)Nc4ccccc4)cc32)c(C)c1`, the concentration at half-maximal activity (AC50) under setting [1] was 31.6 µM [falling, partial curve].

On to `O=C(Nc1cccc2ccccc12)OC1C=CS(=O)(=O)C1` (stereo not drawn), for which the concentration at half-maximal activity (AC50) (measured here: IkB-luc green channel) was 20 µM [falling, partial curve] and the AC50 (measured here: control luc red channel) was 12.6 µM [falling, partial curve].

As to `CCOc1cc(C(=O)Nc2ccc(-c3nc4ccccc4s3)cc2Cl)cc(OCC)c1OCC`, under setting [1], the AC50 was 0.0251 µM [falling, full curve].

`Cc1cc(NC(=O)c2ccc(N(C)S(=O)(=O)c3ccccc3)cc2)no1`: the half-maximal activity concentration (AC50) under setting [1] is 12.6 µM [falling, partial curve].

Regarding `COc1ccc(C(=O)Nc2cc(S(=O)(=O)c3ccc(Cl)cc3)c(O)c(C)c2C)cc1`, under setting [1], the half-maximal activity concentration (AC50) is 25.1 µM [falling, partial curve].

On to `COc1cccc(NS(=O)(=O)c2ccc3[nH]cc(C(=O)NCCC(C)C)c(=O)c3c2)c1`, for which the AC50 under setting [1] is 10 µM [falling, partial curve].

Turning to `COc1ccccc1NC(=O)Cn1nc(-c2ccc(C)cc2)c2c(c1=O)CCCC2`, the half-maximal activity concentration (AC50) under setting [1] is 25.1 µM [falling, partial curve].

`O=C(Nc1ccc(Br)cc1)C(Cc1ccccc1)NS(=O)(=O)c1cccc2nsnc12` (stereo not drawn): under setting [1], the AC50 was 3.98 µM [rising, single point].

In the case of `COc1ccccc1-c1nc(-c2ccccn2)no1`, the AC50 under setting [1] was 6.31 µM [falling, partial curve].

Turning to `CCc1ccc(-n2nc3cc(C)c(NC(=O)c4cc(OC)cc(OC)c4)cc3n2)cc1`, under setting [1], the AC50 is 0.0316 µM [rising, full curve].

As to `CC(C)(C)c1ccc(C(=O)NCC(c2cccs2)S(=O)(=O)c2cccs2)cc1` (stereo not drawn), the AC50 under setting [1] was 25.1 µM [falling, partial curve, poor fit].

In the case of `C=CCn1c(NC(=O)c2ccccc2)c(C#N)c2nc3ccccc3nc21`, under setting [1], the half-maximal activity concentration (AC50) is 25.1 µM [falling, partial curve].

`COc1cc(CN2CCc3nc(N4CCN(c5ccccn5)CC4)ncc3C2)cc(OC)c1OC`: the AC50 under setting [1] was 20 µM [falling, partial curve].

As for `Brc1ccc(-c2nc3ccccc3s2)s1`, the AC50 under setting [1] was 1 µM [rising, full curve, poor fit].

For `O=C(Nc1ccc(Cl)cc1C(F)(F)F)c1cc(S(=O)(=O)N2CCOCC2)ccc1F`, the concentration at half-maximal activity (AC50) under setting [1] is 7.94 µM [falling, partial curve].
